The values that follow are results of earlier work, collected in US20040072211A1, “Methods for identifying ligands using waterlogsy NMR” (PHARMACIA & UPJOHN COMPANY, priority 2002, published 2004).

The chains behind the UniProt entries cited, without tags or fusion partners. Residues count along the entry.
UniProt P02768, 25-609: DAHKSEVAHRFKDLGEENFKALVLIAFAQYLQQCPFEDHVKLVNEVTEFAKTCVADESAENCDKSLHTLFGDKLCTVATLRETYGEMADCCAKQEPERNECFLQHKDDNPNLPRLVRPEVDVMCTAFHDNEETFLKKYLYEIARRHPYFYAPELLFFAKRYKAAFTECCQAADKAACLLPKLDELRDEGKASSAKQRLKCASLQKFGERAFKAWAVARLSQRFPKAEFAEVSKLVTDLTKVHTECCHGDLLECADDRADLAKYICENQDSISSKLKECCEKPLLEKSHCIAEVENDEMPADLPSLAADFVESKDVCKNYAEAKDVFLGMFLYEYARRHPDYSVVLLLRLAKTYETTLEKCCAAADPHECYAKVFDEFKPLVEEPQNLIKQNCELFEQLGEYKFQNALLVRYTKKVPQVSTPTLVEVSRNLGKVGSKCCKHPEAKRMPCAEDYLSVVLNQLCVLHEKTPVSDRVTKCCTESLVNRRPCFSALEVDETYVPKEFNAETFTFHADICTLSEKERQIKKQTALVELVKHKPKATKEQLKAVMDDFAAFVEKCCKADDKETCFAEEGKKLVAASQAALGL

The series deals with Human Serum Albumin (HSA) site II (Homo sapiens, UniProt P02768). As to conditions: literature knowledge; cited from earlier work.

Take `COc1ccc2cc([C@H](C)C(=O)O)ccc2c1` [naproxen]: the “Binding site on HSA” value is “bind to HSA on site II”.
